# Assay results from PubChem BioAssay AID1117319 (Southern Research Institute, 2015).
# By UniProt entry, the sequences of proteins in these tests, tags left out. Where a name states a change or a piece, a line headed by the entry shows the natural chain unless it says otherwise.
# UniProt P69720: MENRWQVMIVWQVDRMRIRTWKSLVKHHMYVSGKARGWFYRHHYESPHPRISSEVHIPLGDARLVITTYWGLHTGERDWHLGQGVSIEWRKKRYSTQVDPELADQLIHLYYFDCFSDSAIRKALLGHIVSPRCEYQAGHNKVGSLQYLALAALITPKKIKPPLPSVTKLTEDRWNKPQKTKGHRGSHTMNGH
# UniProt P69721: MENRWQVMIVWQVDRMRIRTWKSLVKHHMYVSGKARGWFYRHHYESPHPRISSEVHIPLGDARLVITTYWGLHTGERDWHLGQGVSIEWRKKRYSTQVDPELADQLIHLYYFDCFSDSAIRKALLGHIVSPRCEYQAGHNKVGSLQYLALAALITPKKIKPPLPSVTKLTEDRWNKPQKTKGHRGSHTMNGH
# UniProt P69722: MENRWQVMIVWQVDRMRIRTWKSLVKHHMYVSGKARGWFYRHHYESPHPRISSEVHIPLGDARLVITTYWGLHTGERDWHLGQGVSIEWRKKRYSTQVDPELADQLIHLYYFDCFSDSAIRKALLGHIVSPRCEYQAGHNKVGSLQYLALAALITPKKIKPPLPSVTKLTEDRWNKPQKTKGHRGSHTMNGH
# UniProt P69723: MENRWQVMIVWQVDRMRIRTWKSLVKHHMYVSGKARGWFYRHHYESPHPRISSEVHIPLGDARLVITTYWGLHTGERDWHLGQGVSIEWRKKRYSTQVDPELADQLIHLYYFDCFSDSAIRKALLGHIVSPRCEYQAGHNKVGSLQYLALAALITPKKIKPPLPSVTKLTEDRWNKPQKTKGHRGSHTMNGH
# UniProt Q9HC16: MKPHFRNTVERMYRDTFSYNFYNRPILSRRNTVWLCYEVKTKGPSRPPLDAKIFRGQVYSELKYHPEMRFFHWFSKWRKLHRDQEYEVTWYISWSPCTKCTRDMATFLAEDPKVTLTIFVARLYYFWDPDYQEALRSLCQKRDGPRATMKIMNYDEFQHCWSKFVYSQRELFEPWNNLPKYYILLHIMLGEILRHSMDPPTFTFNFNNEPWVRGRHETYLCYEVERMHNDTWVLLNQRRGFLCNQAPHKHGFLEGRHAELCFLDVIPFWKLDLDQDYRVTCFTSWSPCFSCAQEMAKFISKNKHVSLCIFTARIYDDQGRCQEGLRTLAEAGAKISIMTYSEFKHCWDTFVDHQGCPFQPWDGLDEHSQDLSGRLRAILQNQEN
# Among all 260,000 compounds or so, about 1,500 (0.58%) were called active. Inconclusive means that the source gave no clear call. Such entries were picked first, then a sample of the others.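 How the source made its calls: active means inhibition above a set limit at one or more doses, reproduced on every date tested; inconclusive means results disagree between test dates, or hit never tested in dose response; inactive means the rest.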
# Target: Virion infectivity factor (Human immunodeficiency virus type 1 group M subtype B (isolate BH10)) + Virion infectivity factor (Human immunodeficiency virus type 1 group M subtype B (isolate BRU/LAI)) + Virion infectivity factor (Human immunodeficiency virus type 1 group M subtype B (isolate PCV12)) + Virion infectivity factor (Human immunodeficiency virus type 1 group M subtype B (isolate HXB2)) + DNA dC->dU-editing enzyme APOBEC-3G (Homo sapiens) (UniProt P69720+P69721+P69722+P69723+Q9HC16)
# Assay: inhibitors of Vif binding to APOBEC3G peptide, primary screen, biochemical, TR-FRET, GST-Vif 1-94, biotin-A3G peptide, dose response retest (AID 1117319);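 further: Vif residues 1-94 fused to GST binding biotinylated APOBEC3G peptide 110-148; 0% = full assay without inhibitor and 100% = GST in place of GST-Vif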
# Details: hits give high values
row,SMILES,inhibition
1,CC(Sc1nc(-c2ccccc2)cc(C(F)(F)F)n1)C(=O)NCCN1CCOCC1 (stereo unspecified),inconclusive: -0.51%
2,CCN(CCn1cccn1)C(=O)CCc1nnc(CCc2ccccc2OC)o1,inconclusive: 33.6%
3,S=c1[nH]nc(-c2ccn[nH]2)n1-c1ccccc1Cl,inconclusive: 36%
4,Cc1ccc(CN2C(=O)N/C(=C\c3ccc(-c4ccc(C(=O)O)cc4C)o3)C2=O)cc1,inconclusive: 49.2%
5,CCOP(=O)(OCC)C(NC(=O)Nc1ccc(C)c(Cl)c1)c1ccccc1 (stereo unspecified),inactive: 1.69%
6,CCCCCCCCCCCCCCCCn1cc[n+](C)c1,inconclusive: 36.2%
7,CCC(=O)c1ccc(N2CCN(C(=O)c3cccc(F)c3)CC2)c(F)c1,inactive: -9.86%
8,COc1ccc(-c2cc(OC)c3c(C)oc(C)c3c(=O)c2)cc1OC,inconclusive: 41.7%
9,O=C(COc1ccc(Cl)cc1)NCc1nnc(SCC(=O)NC2CCCC2)o1,inconclusive: 47.2%
10,CCn1nc(C)c(/C=N/NC(=O)Cn2nnnc2N)c1C,inconclusive: 37.8%
11,CCN(CC)S(=O)(=O)c1ccc(NC(=O)C2c3ccccc3Oc3ccccc32)cc1,inconclusive: 41.9%
12,O=C(N/N=C/c1ccc(-c2ccc(Cl)c(C(=O)O)c2)o1)c1cc2c(ccc3ccccc32)o1,inconclusive: 56.6%
13,COc1ccc2c(c1OC)C(=O)N1C2SC[C@H]1C(=O)NC1CC(C)(C)NC(C)(C)C1 (stereo partly specified),inconclusive: 35.8%
14,COc1ccccc1C(=O)N/N=C(\C)CC(=O)Nc1ccc(Cl)cn1,inconclusive: 36%
15,O=C1ON=C(c2ccccc2)/C1=C\c1ccco1,inconclusive: 63.1%
16,O=C1OCCC/C1=C\c1ccc2c(c1)OCO2,inconclusive: 59.4%
17,CCCOc1ccccc1C(=O)NCCCC(=O)O,inconclusive: 12.7%
18,O=C(/C=C/c1ccco1)N1CCN(S(=O)(=O)c2cccs2)CC1,inconclusive: 53.1%
19,COc1ccc2cc(C(=O)Nc3ccc(Cl)cc3)sc(=O)c2c1OC,inconclusive: 40.4%

row,SMILES,inhibition
1,COc1cc(/C=C2\SC(=N)N(c3ccc4c(c3)OCO4)C2=O)cc(OC)c1O,inactive: 2.68%
2,O=C(Cc1ccc(-n2c(=S)[nH]c3ccccc3c2=O)cc1)N1CCC(N2CCCCC2)CC1,inconclusive: 38.4%
3,Cc1ccccc1N/C(SCc1ccc(Cl)cc1)=C(/C#N)C(N)=O,inconclusive: 40.4%
4,COC(=O)Cc1ccc(NC(=S)Nc2ccc(N3CCOCC3)cc2)cc1,inconclusive: 63.6%
5,Cc1[nH]n(-c2ccccc2)c(=O)c1N=Nc1ccccc1C(=O)N1CCCCC1,inconclusive: 59.7%
6,CCOC(=O)CC1C(=O)NCCN1S(=O)(=O)c1cc(Cl)c(Cl)cc1Cl (stereo unspecified),inconclusive: 41.9%
7,Cc1nc2nc(-c3ccccc3)[nH]n2c(=O)c1C,inactive: 21.8%
8,Fc1ccc(-c2nnc(CSc3nnc(-c4cccs4)o3)o2)cc1,inconclusive: 41.1%
9,COc1ccc(NS(=O)(=O)c2ccc(N3CC(O)=C(c4ccccc4)C3=N)cc2)cc1,inconclusive: 40.9%
10,COC(=O)c1ccccc1NC(=O)C1CC(=O)N(c2ccccc2)C1 (stereo unspecified),inconclusive: 38%
11,Cc1c(C(=O)c2ccc([N+](=O)[O-])cc2)c(=O)n(C)c(=O)n1C,inactive: -3.13%
12,COc1ccc(CNC(=O)/C=C/c2cc([N+](=O)[O-])ccc2OC(F)F)cc1,inconclusive: 56.8%
13,Cc1ccc(-c2nc3ccccn3c2Nc2ccccc2)o1,inconclusive: 40.8%
14,NS(=O)(=O)c1ccc(NC2=CC(c3ccc([N+](=O)[O-])cc3)N(c3ccc(S(N)(=O)=O)cc3)C2=O)cc1 (stereo unspecified),inconclusive: 40%
15,COc1cc(NC(C)CCCNC(C)C)c2ncccc2c1OC (stereo unspecified),inactive: 3.4%
16,COc1ccc(CCNS(=O)(=O)c2ccc3c(c2)OCCO3)cc1OC,inconclusive: 34.2%
17,O=C(COC(=O)[C@@H]1CC(O)CN1S(=O)(=O)c1ccccc1[N+](=O)[O-])Nc1ccc2ccccc2c1 (stereo partly specified),inconclusive: 41.5%
18,COc1ccc(C(=O)Nc2ccc3nc4n(c(=O)c3c2)CCCC4)cc1[N+](=O)[O-],inconclusive: 42.1%
19,O=C(Cc1ccccc1F)Nc1cccc2cccnc12,inconclusive: 52.4%

row,SMILES,inhibition
1,O=C(/C=C\Nc1ccc2c(c1)OCO2)c1ccccn1,inactive: -6.96%
2,N/C(=N\OC(=O)Nc1ccccc1)c1ccno1,inconclusive: 51%
3,CS(=O)(=O)N(CC(=O)NCc1ccncc1)c1ccc(F)c(Cl)c1,inconclusive: 52.1%
4,Nc1c(Cl)ncnc1N/N=C/c1ccnc2ccccc12,inconclusive: 44.7%
5,CN1C(=O)CC(c2cn(Cc3ccccc3)c3ccccc23)C1=O (stereo unspecified),inconclusive: 57.8%
6,CC(NC(=O)C(c1ccccc1)c1ccccc1)C(=O)O (stereo unspecified),inconclusive: 43.5%
7,Oc1ccc(N2CCN(c3ncnc4sc5c(c34)CCC5)CC2)cc1,inconclusive: 30.7%
8,COc1cc(OC)cc(C(=O)N2CCN(C(=O)c3cccc(F)c3)CC2)c1,inconclusive: 41.9%
9,CCOC(=O)/C=c1\s/c(=C(\C#N)C(N)=O)n(-c2ccccc2)c1=O,inconclusive: 55.9%
10,O=C(Nc1nnc(-c2ccccn2)o1)c1cccc(Cl)c1,inconclusive: 33.7%
11,CCCn1nc(NC(=O)C2CCCO2)c2cc3cc(C)ccc3nc21 (stereo unspecified),inconclusive: 34.8%
12,Cc1ccc(-c2nnc(N3CCOCC3)c3ccccc23)cc1S(=O)(=O)N(C)C,inactive: -45.2%
13,COc1ccc(COCC(CC(C)C)N2CCN(C(=O)c3cccc(C(F)(F)F)c3)CCC2=O)cc1 (stereo unspecified),inconclusive: 48.4%
14,Oc1ccccc1C=NCCN=Cc1ccccc1O,inconclusive: 45%
15,CCCCCCc1cc2cc(C(=O)Nc3cccc(OC)c3)c(=O)oc2cc1O,inconclusive: 36.8%
16,Cc1ccc(C)c(NC(=O)Cc2nc(CCl)cs2)c1,inconclusive: 50.2%
17,Cc1cccc(NC(=O)C(=O)C2C(=O)Nc3ccccc32)c1 (stereo unspecified),inconclusive: 55%
18,Cc1ccc(NC(=S)N(CCCN(C)C)Cc2cc3cc4c(cc3[nH]c2=O)OCO4)c(C)c1,inconclusive: 36.8%

# As entered above.
# Entry of O=C(Nc1nnc(-c2ccccn2)o1)c1cccc(Cl)c1 under inhibition: inconclusive: 33.7%
# Entry of CC(NC(=O)C(c1ccccc1)c1ccccc1)C(=O)O (stereo unspecified) under inhibition: inconclusive: 43.5%

# An excerpt of these results, bar-delimited:
row | SMILES | inhibition
14 | Oc1ccccc1C=NCCN=Cc1ccccc1O | inconclusive: 45%
15 | CCCCCCc1cc2cc(C(=O)Nc3cccc(OC)c3)c(=O)oc2cc1O | inconclusive: 36.8%
